# Percent effect of library compounds

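Whole-cell growth test on Mycobacterium tuberculosis, read after 4 days in a medium based on cholesterol and the lipid DPPC; the read-out is not stated. Tested at 500 µM. Direction is inferred from retests: higher values go with more growth inhibition. About 18,000 compounds were tested under these conditions; 5% (about 900) showed 50% or more at least once.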

Values are the deposited “Percent Effect”, in %. The controls that fix the scale are not given in the record; negative values are as filed. This is an unselected part of the compounds tested.

Compound	effect
N#Cc1cccc(C(=O)NCCCn2cccn2)c1	15.93%
CSc1cccc(NC(=O)CN)c1	10.33%
COc1ccc(CCCN2CCNC(=O)CC2)cc1F	11.83%
CS(=O)(=O)CC(=O)Nc1cccc(Cl)c1Cl	15.19%
COc1ccc(CC(=O)Nc2cnn(C)c2)cc1F	1.377%
CNC(C(N)=O)c1cc(OC)ccc1Br (configuration not stated)	8.5%
COCCn1cnnc1SCCN1CCC(C)C1 (configuration not stated)	40.29%
CC(=O)NCCc1nc(-c2ccc(C)nn2)no1	-9.308%
CCS(=O)(=O)c1cc(OC)c(OC)cc1C	7.928%
CCN1CCN(S(=O)(=O)N2CCOCC2)CC1	-2.496%
COCCCNC(=O)c1ccn(-c2ccc(F)cc2)n1	62.01%
O=C1CCCN1CC1CCNC1 (configuration not stated)	0.7683%
CN(C)C(=O)NCCc1ccc(F)cc1	-0.5082%
Cc1nsc(NC(=O)C2CCNCC2)n1	0.1221%
CC(C)CC(=O)NCc1ccnc(N2CCCC2)c1	20.66%
CNCCN1CCOC(C)(C)C1	-16.25%
c1n[nH]c2c1CNC2	-9.017%
COCC1CCN(C(=O)c2c(C)cc(C)[nH]c2=O)C1 (configuration not stated)	-7.092%
Cc1cc(C)c(S(=O)(=O)NCCO)c(C)c1	-10.19%
COCc1nc(C2CCN(S(C)(=O)=O)C2)no1 (configuration not stated)	7.404%
COc1ccc(C(=O)CSc2nnc(N)[nH]2)cc1F	35.6%
CNC(=O)c1cccc(NCc2c(C)noc2C)c1	-9.719%
CC(C)C(=O)N1CCC(O)CC1	-4.533%
COC(=O)C(NCc1nnnn1C1CC1)C(C)(C)C (configuration not stated)	9.438%
CC(=O)c1ccc(S(C)(=O)=O)c(N2CCC(C)(C)C2)c1	79.09%
CN1CCN(C2CCNCC2)C1=O	-7.641%
CCn1nnnc1NCc1sccc1C	10.15%
CC(C)(C)OC(=O)CNC1CCOCC1	-6.499%
COc1ccc(C(=O)N2CCCNCC2)cc1	12.63%
COc1ccc(NC(=O)C(C)(C)N(C)C)cc1	-11.32%
OCC1(CC2CC2)CCCN(CCCn2cccn2)C1 (configuration not stated)	-6.077%
NC(=O)CCn1ccnc1C(=O)c1ccccc1	6.009%
CN1CCC2(CCNCC2)C1=O	-3.498%
O=C(NCCC1=CSC2=NCCCN12)c1cnn[nH]1	4.228%
NS(=O)(=O)c1ccc(NC(=O)c2ccccc2O)cc1	15.98%
COc1c(CNCCS(C)(=O)=O)c(C)nn1C	3.786%
O=S(=O)(CCN1CCN(c2nccs2)CC1)C(F)(F)F	-11.05%
CCS(=O)(=O)NCCNC(=O)c1ccc(C)nc1	-7.716%
O=C(NCCCn1nccc1C1CC1)c1ccno1	-27.82%
O=c1[nH]ccn2nc(-c3ccc4c(c3)OCO4)cc12	-1.24%
Cc1cc(Cl)cnc1C#N	10.13%
COC(=O)Nc1cc(OC)c(OC)cc1C(=O)OC	11.53%
Cc1cc(NC(=O)NC2CCN(C3CC3)CC2)n(C)n1	-6.232%
COc1ccc(C)cc1NCC(=O)N1CCNC1=O	-7.188%
CNCCCNC(=O)c1ccc2c(c1)CCC2	8.048%
O=C(NCCC1CCCCO1)NC1CC=CC1 (configuration not stated)	19.85%
CN1N=C(C(=O)NCc2ccc(Cl)cc2)CCC1=O	65.91%
CC(Nc1cccc(OC(F)(F)F)c1)C(=O)NC(N)=O (configuration not stated)	54.57%
O=C1CCC2(CNC(=O)C3CC3)CCCC=C2N1 (configuration not stated)	0.7435%
CC(C#N)OC(=O)c1ccccc1 (configuration not stated)	-14.78%
N[C@H]1CN(S(=O)(=O)c2cccc(Cl)c2)C[C@@H]1C1CC1	50.92%
CCC(C)(CCO)NC(=O)c1ccncc1Cl (configuration not stated)	-9.74%
O=C(NCc1cc[nH]n1)NCC(O)c1cccc(Cl)c1 (configuration not stated)	3.154%
CCOC(=O)N1CCC(N)C1 (configuration not stated)	4.233%
Cc1noc(CN(C)CC2(CO)CCOCC2)n1	-3.294%
CC1CN(C)CCN1C(=O)NCc1ccccc1F (configuration not stated)	7.84%
COc1ccc(C(=O)Nc2cc(Br)c(=O)n(C)c2)cc1	20.42%
O=C(NCCc1ccsc1)NC1CCCCNC1=O (configuration not stated)	21.93%
CCN(CC)C(=O)N(C)Cc1nnc[nH]1	-5.308%
COCCCn1cnn(C(C)(C)C)c1=O	1.214%
Cc1cc(C)cc(NC(=O)CN2CCC(O)CC2)c1	24.03%
Nc1ccc(C(=O)NCC2(Cn3cccn3)CC2)cn1	0.1383%
CS(=O)(=O)c1nccn1CCN1CCCCC1	-11.77%
Cc1cccc2nc(CN)n(C)c12	3.241%
N#CCCNC(=O)CSc1ccccc1F	4.559%
CS(=O)(=O)N1CCOc2ncccc21	3.264%
COc1cc(NCc2cc[nH]n2)cc(OC)c1	4.196%
O[C@H]1CN(Cc2cccnc2)C[C@@H]1N1CCCCC1	12.82%
c1noc(C2CCNCC2)n1	-10.68%
CNC1CCN(C(=O)Cc2cc(F)ccc2F)C1 (configuration not stated)	-1.101%

For reference, 8 entries once more:

Compound,effect
OCC1(CC2CC2)CCCN(CCCn2cccn2)C1 (configuration not stated),-6.077%
O=C1CCC2(CNC(=O)C3CC3)CCCC=C2N1 (configuration not stated),0.7435%
Cc1cc(Cl)cnc1C#N,10.13%
CNCCN1CCOC(C)(C)C1,-16.25%
NC(=O)CCn1ccnc1C(=O)c1ccccc1,6.009%
CN1CCN(C2CCNCC2)C1=O,-7.641%
Cc1cc(C)cc(NC(=O)CN2CCC(O)CC2)c1,24.03%
CSc1cccc(NC(=O)CN)c1,10.33%

Data taken from ChEMBL document CHEMBL3988442, “University of Dundee, Small-Polar-MMV Screening Library” (2021).